The other results are listed elsewhere or left out.
Key:
Test in all cases: glycan array binding signal (z-score within array); higher = stronger binding
Settings in all cases: glycan notation: IUPAC condensed, linker removed
[1] = biological target: Neu5Ac(a2-3)Gal(b1-3)GlcNAc(b1-6)GalNAc
In short: (§1)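 Columns mapping to the same glycan were averaged after glycan names were converted to IUPAC-condensed notation. The data come from 3228 arrays in the Consortium for Functional Glycomics database, limited to those with an available protein sequence. Binding is reported as a within-array Z-score averaged across arrays of one protein sequence and across linkers.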

[2] = biological target: Neu5Ac(a2-3)Gal(b1-3)GlcNAc6S
In short: as §1

[3] = biological target: Neu5Ac(a2-3)Gal(b1-3)[Fuc(a1-4)]GlcNAc
In short: as §1

[4] = biological target: Neu5Ac(a2-3)Gal(b1-3)[Fuc(a1-4)]GlcNAc(b1-3)Gal(b1-3)[Fuc(a1-4)]GlcNAc
In short: as §1

[5] = biological target: Neu5Ac(a2-3)Gal(b1-3)[Fuc(a1-4)]GlcNAc(b1-3)Gal(b1-4)[Fuc(a1-3)]GlcNAc
In short: as §1

[6] = biological target: Neu5Ac(a2-3)Gal(b1-3)[GlcNAc(b1-6)]GalNAc
In short: as §1

[7] = biological target: Neu5Ac(a2-3)Gal(b1-3)[Neu5Ac(a2-6)]GalNAc
In short: as §1

[8] = biological target: Neu5Ac(a2-3)Gal(b1-3)[Neu5Ac(a2-6)]GlcNAc(b1-3)[Fuc(a1-3)[Gal(b1-4)]GlcNAc(b1-6)]Gal(b1-4)Glc
In short: as §1

[9] = biological target: Neu5Ac(a2-3)Gal(b1-3)]Neu5Ac(a2-3)Gal(b1-4)]GlcNAc
In short: as §1

Neu5Ac(a2-3)Gal(b1-4)Glc = biological target: Neu5Ac(a2-3)Gal(b1-4)Glc
In short: as §1

[10] = biological target: Neu5Ac(a2-3)Gal(b1-4)GlcNAc
In short: as §1

[11] = biological target: Neu5Ac(a2-3)Gal(b1-4)GlcNAc(b1-2)Man
In short: as §1

[12] = biological target: Neu5Ac(a2-3)Gal(b1-4)GlcNAc(b1-2)Man(a1-3)[GlcNAc(b1-4)][Neu5Ac(a2-3)Gal(b1-4)GlcNAc(b1-2)Man(a1-6)]Man(b1-4)GlcNAc(b1-4)GlcNAc
In short: as §1

[13] = biological target: Neu5Ac(a2-3)Gal(b1-4)GlcNAc(b1-2)Man(a1-3)[Neu5Ac(a2-3)Gal(b1-4)GlcNAc(b1-2)Man(a1-6)]Man(b1-4)GlcNAc(b1-4)GlcNAc
In short: as §1

[14] = biological target: Neu5Ac(a2-3)Gal(b1-4)GlcNAc(b1-2)Man(a1-3)[Neu5Ac(a2-3)Gal(b1-4)GlcNAc(b1-2)Man(a1-6)]Man(b1-4)GlcNAc(b1-4)[Fuc(a1-6)]GlcNAc
In short: as §1

[15] = biological target: Neu5Ac(a2-3)Gal(b1-4)GlcNAc(b1-2)Man(a1-3)[Neu5Ac(a2-6)Gal(b1-4)GlcNAc(b1-2)Man(a1-6)]Man(b1-4)GlcNAc(b1-4)GlcNAc
In short: as §1

[16] = biological target: Neu5Ac(a2-3)Gal(b1-4)GlcNAc(b1-2)[Neu5Ac(a2-3)Gal(b1-4)GlcNAc(b1-4)]Man(a1-3)[GlcNAc(b1-4)][Neu5Ac(a2-3)Gal(b1-4)GlcNAc(b1-2)[Neu5Ac(a2-3)Gal(b1-4)GlcNAc(b1-6)]Man(a1-6)]Man(b1-4)GlcNAc(b1-4)GlcNAc
In short: as §1

[17] = biological target: Neu5Ac(a2-3)Gal(b1-4)GlcNAc(b1-2)[Neu5Ac(a2-3)Gal(b1-4)GlcNAc(b1-4)]Man(a1-3)[GlcNAc(b1-4)][Neu5Ac(a2-3)Gal(b1-4)GlcNAc(b1-4)Man(a1-6)]Man(b1-4)GlcNAc(b1-4)GlcNAc
In short: as §1

[18] = biological target: Neu5Ac(a2-3)Gal(b1-4)GlcNAc(b1-2)[Neu5Ac(a2-3)Gal(b1-4)GlcNAc(b1-6)]Man(a1-6)[Neu5Ac(a2-3)Gal(b1-4)GlcNAc(b1-2)Man(a1-3)][GlcNAc(b1-4)]Man(b1-4)GlcNAc(b1-4)GlcNAc
In short: as §1

[19] = biological target: Neu5Ac(a2-3)Gal(b1-4)GlcNAc(b1-3)Gal
In short: as §1

[20] = biological target: Neu5Ac(a2-3)Gal(b1-4)GlcNAc(b1-3)Gal(b1-3)GlcNAc
In short: as §1

[21] = biological target: Neu5Ac(a2-3)Gal(b1-4)GlcNAc(b1-3)Gal(b1-4)GlcNAc
In short: as §1

[22] = biological target: Neu5Ac(a2-3)Gal(b1-4)GlcNAc(b1-3)Gal(b1-4)GlcNAc(b1-2)Man(a1-3)[Neu5Ac(a2-3)Gal(b1-4)GlcNAc(b1-3)Gal(b1-4)GlcNAc(b1-2)Man(a1-6)]Man(b1-4)GlcNAc(b1-4)GlcNAc
In short: as §1

[23] = biological target: Neu5Ac(a2-3)Gal(b1-4)GlcNAc(b1-3)Gal(b1-4)GlcNAc(b1-3)Gal(b1-4)GlcNAc
In short: as §1

[24] = biological target: Neu5Ac(a2-3)Gal(b1-4)GlcNAc(b1-3)Gal(b1-4)GlcNAc(b1-3)Gal(b1-4)GlcNAc(b1-2)Man(a1-3)[Neu5Ac(a2-3)Gal(b1-4)GlcNAc(b1-3)Gal(b1-4)GlcNAc(b1-3)Gal(b1-4)GlcNAc(b1-2)Man(a1-6)]GalNAc
In short: as §1

[25] = biological target: Neu5Ac(a2-3)Gal(b1-4)GlcNAc(b1-3)Gal(b1-4)GlcNAc(b1-3)GalNAc
In short: as §1

[26] = biological target: Neu5Ac(a2-3)Gal(b1-4)GlcNAc(b1-3)Gal(b1-4)GlcNAc(b1-3)[Neu5Ac(a2-3)Gal(b1-4)GlcNAc(b1-3)Gal(b1-4)GlcNAc(b1-6)]GalNAc
In short: as §1

[27] = biological target: Neu5Ac(a2-3)Gal(b1-4)GlcNAc(b1-3)Gal(b1-4)GlcNAc(b1-6)[Gal(b1-3)]GalNAc
In short: as §1

[28] = biological target: Neu5Ac(a2-3)Gal(b1-4)GlcNAc(b1-3)Gal(b1-4)[Fuc(a1-3)]GlcNAc
In short: as §1

[29] = biological target: Neu5Ac(a2-3)Gal(b1-4)GlcNAc(b1-3)GalNAc
In short: as §1

B1: cFel (Cyprinus carpio), P68512 (protein)
chain: LDCTVIDGNLKQIDAGSGSVVGVNNLNETFVLIDNVFTKISGSLKHFSVGPAGQLGVNTANNIFKYQSGGFVQLAGLLKQVDAGGDQIIAGVNMYDDIYCLNMDANNKWPSSNTPWVQINGKLKYYSCGPYSCWGVNSNDQIFIMKDVSSNVCSGSGSFINIPGLLSMIEVATDGSVFGVNSQGNLYQRTGVTRSKPDGTDWISMVACPNGHKHVSFDLGVLWLVCVDGSIRKCILTD
[1]
  glycan array binding signal (z-score): 0.945
[2]
  glycan array binding signal (z-score): -0.503
[3]
  glycan array binding signal (z-score): 0.133
[4]
  glycan array binding signal (z-score): -0.15
[5]
  glycan array binding signal (z-score): -0.196
[6]
  glycan array binding signal (z-score): 0.319
[7]
  glycan array binding signal (z-score): 0.018
[8]
  glycan array binding signal (z-score): -0.734
[9]
  glycan array binding signal (z-score): -0.915
Neu5Ac(a2-3)Gal(b1-4)Glc
  glycan array binding signal (z-score): -0.551
[10]
  glycan array binding signal (z-score): -0.785
[11]
  glycan array binding signal (z-score): 0.574
[12]
  glycan array binding signal (z-score): 3.12
[13]
  glycan array binding signal (z-score): 0.925
[14]
  glycan array binding signal (z-score): 0.815
[15]
  glycan array binding signal (z-score): -1.17
[16]
  glycan array binding signal (z-score): 0.562
[17]
  glycan array binding signal (z-score): -0.578
[18]
  glycan array binding signal (z-score): 1.45
[19]
  glycan array binding signal (z-score): -0.498
[20]
  glycan array binding signal (z-score): -0.038
[21]
  glycan array binding signal (z-score): -0.339
[22]
  glycan array binding signal (z-score): -0.134
[23]
  glycan array binding signal (z-score): 0.322
[24]
  glycan array binding signal (z-score): -1.27
[25]
  glycan array binding signal (z-score): -0.912
[26]
  glycan array binding signal (z-score): -0.999
[27]
  glycan array binding signal (z-score): -0.862
[28]
  glycan array binding signal (z-score): 0.401
[29]
  glycan array binding signal (z-score): -1.64
